PMC5008309
Results are given in words; binding and its absence hold for the method and conditions named. Binding seen in cells or lysates may run through a third protein. Here binding means that the protein was enriched with, or labelled near, the bait; the list need not be complete. Sequences can lack the tags named with a protein.

Sequences of proteins named here, by UniProt entry; tags and fusion partners are left off. Residues count along the entry.
UniProt P21860, residues 20-1342: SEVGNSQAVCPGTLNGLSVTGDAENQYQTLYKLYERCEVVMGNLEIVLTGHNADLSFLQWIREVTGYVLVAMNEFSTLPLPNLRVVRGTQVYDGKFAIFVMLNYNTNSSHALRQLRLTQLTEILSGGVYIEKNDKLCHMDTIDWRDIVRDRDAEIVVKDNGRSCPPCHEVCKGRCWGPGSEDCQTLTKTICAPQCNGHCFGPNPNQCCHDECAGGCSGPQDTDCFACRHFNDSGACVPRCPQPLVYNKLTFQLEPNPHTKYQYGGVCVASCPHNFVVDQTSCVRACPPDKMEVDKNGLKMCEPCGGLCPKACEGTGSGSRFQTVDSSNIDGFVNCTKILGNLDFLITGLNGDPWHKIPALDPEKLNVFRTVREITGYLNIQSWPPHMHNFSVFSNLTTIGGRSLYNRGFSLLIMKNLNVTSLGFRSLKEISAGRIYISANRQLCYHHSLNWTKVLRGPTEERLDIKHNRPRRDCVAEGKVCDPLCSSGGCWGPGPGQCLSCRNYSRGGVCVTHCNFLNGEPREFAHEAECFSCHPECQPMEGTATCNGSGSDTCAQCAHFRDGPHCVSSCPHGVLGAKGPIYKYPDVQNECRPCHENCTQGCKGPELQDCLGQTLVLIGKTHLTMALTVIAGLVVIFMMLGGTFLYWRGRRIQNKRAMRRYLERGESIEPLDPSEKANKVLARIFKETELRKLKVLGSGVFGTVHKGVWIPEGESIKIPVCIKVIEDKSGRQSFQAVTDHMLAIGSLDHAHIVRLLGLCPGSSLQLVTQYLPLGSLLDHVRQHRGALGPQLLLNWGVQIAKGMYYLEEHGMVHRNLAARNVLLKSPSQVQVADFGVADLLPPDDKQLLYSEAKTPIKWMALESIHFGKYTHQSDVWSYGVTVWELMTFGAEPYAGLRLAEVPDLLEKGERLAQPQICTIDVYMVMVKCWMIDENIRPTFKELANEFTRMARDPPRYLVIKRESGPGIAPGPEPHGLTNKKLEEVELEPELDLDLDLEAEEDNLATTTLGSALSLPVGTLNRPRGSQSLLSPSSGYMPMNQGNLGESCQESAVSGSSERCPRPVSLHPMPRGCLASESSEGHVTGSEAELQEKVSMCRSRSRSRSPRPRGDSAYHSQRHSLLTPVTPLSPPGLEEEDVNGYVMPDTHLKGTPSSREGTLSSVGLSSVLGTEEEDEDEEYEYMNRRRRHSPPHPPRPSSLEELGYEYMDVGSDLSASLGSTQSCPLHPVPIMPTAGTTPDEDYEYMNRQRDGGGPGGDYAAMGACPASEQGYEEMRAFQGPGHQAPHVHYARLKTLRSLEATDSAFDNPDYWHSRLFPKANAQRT

Target: T1, 3xFLAG-tagged APIP expressed in SNU-16 cells (human) (UniProt Q96GX9)
T1 sequence: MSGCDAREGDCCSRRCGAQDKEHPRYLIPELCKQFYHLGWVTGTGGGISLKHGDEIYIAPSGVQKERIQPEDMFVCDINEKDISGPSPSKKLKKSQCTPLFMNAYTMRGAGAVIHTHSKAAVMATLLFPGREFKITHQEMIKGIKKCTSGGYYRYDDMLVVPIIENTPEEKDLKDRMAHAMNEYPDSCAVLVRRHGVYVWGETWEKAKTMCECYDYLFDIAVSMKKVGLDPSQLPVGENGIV
Test: affinity purification with mass spectrometry; SNU-16 cells expressing 3xFLAG-tagged APIP; FLAG M2 affinity gel; bound proteins resolved by SDS-PAGE, LC-MS/MS

ERBB3 (HER3), endogenous in SNU-16 cells (from UniProt P21860 20-1342) (receptor)
binding: binds
